Assay results taken from patent US7521536B2, “Glutamate transporter associated protein” (The Johns Hopkins University School of Medicine, priority 1999, dated 2009).
At least one compound was matched to its structure with a doubt left.

Amino acid sequences for entries named in this document (tags omitted).
UniProt P31596, whole entry: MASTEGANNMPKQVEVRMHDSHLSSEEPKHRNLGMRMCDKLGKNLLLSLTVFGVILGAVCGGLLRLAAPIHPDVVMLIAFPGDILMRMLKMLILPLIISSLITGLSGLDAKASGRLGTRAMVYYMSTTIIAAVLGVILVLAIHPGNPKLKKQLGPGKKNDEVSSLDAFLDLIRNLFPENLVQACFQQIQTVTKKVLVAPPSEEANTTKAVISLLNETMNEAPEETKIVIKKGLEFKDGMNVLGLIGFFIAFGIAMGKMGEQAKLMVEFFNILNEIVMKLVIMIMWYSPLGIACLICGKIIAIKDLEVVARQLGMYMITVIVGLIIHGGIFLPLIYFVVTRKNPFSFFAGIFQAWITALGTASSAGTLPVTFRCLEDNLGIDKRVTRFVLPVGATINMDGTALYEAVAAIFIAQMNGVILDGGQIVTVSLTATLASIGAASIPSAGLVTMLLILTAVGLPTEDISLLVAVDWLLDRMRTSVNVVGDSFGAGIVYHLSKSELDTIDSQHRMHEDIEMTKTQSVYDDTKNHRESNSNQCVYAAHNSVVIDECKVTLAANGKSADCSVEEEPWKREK

Columns and labels:
GTRAP3-18 [1] = assay: retinoic acid regulation of GTRAP3-18 and EAAC1-mediated glutamate transport in HEK293 cells; type: cell-based
Source text: Human GTRAP3-18 (JWA protein) was originally identified as a retinoic acid responsive gene. […] The loss of transport activity is not due to changes in EAAC1 protein level (FIG. 9A) or the cellular membrane localization of EAAC1 protein by retinoic acid as examined by fluorescent microscopy. To confirm that loss of transport activity was specifically due to GTRAP3-18 and not by other factors induced by retinoic acid or direct effects on EAAC1, a truncated EAAC1 cDNA, lacking the last 93 amino acids, was constructed. The truncation corresponded to the region used as bait in yeast two-hybrid screening, and was not able to interact with GTRAP3-18. Nevertheless, after transient expression in HEK293 cells, the truncated EAAC1 transported glutamate. […] Thus, the loss of transport activity by retinoic acid was the result of GTRAP3-18 induction. […] This could reflect lack of natural inhibition of the truncated protein EAAC1 by endogenous GTRAP3-18—results similar to the effects of GTRAP3-18 antisense treatment (FIG. 9E).

GTRAP3-18 [2] = assay: intraventricular infusion of retinoic acid, cortical GTRAP3-18 and glutamate uptake; type: in vivo
Description: To test this hypothesis in vivo, retinoic acid was infused intraventricularly (1-20 μM; 0-20 pmol/μL). […] This effect is specifically due to decreased EAAC1 -mediated transport because it was not altered by the glutamate transport inhibitor dihydrokainic acid, at a concentration that predominantly effects GLT-1 (Robinson et al. (1998)). […] Retinoic acid had no effect on glutamate transport by cells expressing GLT-1 or EAAT4.

GLT-1 = GLT-1 (Rattus norvegicus, UniProt P31596); assay: glutamate transport by cells expressing GLT-1; type: cell-based
EAAT4 = biological target: T1, EAAT4 (Rattus norvegicus, UniProt O35921); assay: glutamate transport by cells expressing EAAT4; type: cell-based
T1 sequence (O35921 1-561): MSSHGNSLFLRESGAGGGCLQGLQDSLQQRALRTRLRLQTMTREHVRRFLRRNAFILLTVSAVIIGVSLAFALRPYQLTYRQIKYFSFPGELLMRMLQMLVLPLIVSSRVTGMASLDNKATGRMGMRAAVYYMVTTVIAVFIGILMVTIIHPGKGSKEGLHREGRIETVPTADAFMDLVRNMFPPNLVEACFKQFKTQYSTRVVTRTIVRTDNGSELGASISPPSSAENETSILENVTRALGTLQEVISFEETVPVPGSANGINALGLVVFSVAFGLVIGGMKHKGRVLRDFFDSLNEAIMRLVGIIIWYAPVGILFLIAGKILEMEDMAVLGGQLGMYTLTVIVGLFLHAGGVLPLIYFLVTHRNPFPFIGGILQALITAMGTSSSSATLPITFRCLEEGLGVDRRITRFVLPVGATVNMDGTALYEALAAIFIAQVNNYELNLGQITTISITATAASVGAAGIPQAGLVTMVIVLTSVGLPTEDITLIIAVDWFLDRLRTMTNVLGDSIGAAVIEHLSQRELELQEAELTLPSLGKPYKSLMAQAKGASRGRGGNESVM

CC1=C(/C=C/C(C)=C/C=C/C(C)=C/C(=O)O)C(C)(C)CCC1 [Retinoic acid, retinoic acid]
activity of the truncated EAAC1 protein (GTRAP3-18 [1]; HEK293 cells transiently expressing EAAC1 lacking the last 93 amino acids): does not alter | GTRAP3-18 expression (GTRAP3-18 [1]; HEK293 cells, 1-10 μM): large increase | glutamate transport activity (GTRAP3-18 [1]; HEK293 cells, parallel to increase of GTRAP3-18 protein): significant decrease | decrease in affinity of DHK-insensitive cortical glutamate transport (GTRAP3-18 [2]; four days intraventricular, compared to control transport): 4 fold | cortical GTRAP3-18 protein expression (GTRAP3-18 [2]; intraventricular, 1-20 μM, after 4 days): increased in a dose dependent manner | total glutamate uptake (GTRAP3-18 [2]; intraventricular, after 4 days): significant decrease | effect on glutamate transport (GLT-1): no effect | effect on glutamate transport (EAAT4): no effect
